# Source: the supplement of paper PMC8728848
# The other results are listed elsewhere or left out.
# B1: PX14351B-bth-512-36-512 (Bacteroides thetaiotaomicron) (protein)
# chain: ASETQQWKTLEDTRSALMGVYGLTRAALADNNTHWICGDLRKGDFTVYKRSDLQAVSDNELNKPYDLLKKVSNWRRFYAVINAASVFMEKAPRTVELDRSYSEQNLKYDIAQVRALRAFAYFYMVRIWGDVPLVTYSYDNGTFPSMPRTDAQTVLSYAKAELLTAIEDLPYQYGTQTNLYYGSYGAQWQGKLFNKLSAYSVLAHICAWQGNYAEAETYSAFIIDHASEINAKYTSIADLTSETGLFYSNASVKGSRILGFNFAHNDNEATQSGHLEQLTLAYPLVQKSYPEIYISKDSLFSIFTNFDDLRFGIIDTIKYSSYYVQNLNEETPVFSKIKIIQDGSAKDNDFGVFGSSIVFTRLEDITLLRAEALCALNRSTEAVSYLNMIRTNRGLREVSFKKDFGNNRESLIAEIFEERRRELMGEGWRWYDLVRRQKLMKDNEAFLRLISSGGIYWPVSEDIITANSQIEQNEFWK
# Legend:
# Test in all cases: glycan array binding signal (z-score within array); higher = stronger binding
# Conditions in all cases: glycan notation: IUPAC condensed, linker removed
# Gal(a1-3)Gal = molecular target: Gal(a1-3)Gal
# Method in brief: (§1)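 The Consortium for Functional Glycomics database supplied 3228 glycan arrays, of which those lacking an available protein sequence were dropped. The binding signal, a within-array Z-score, was averaged across arrays of the same protein sequence and across linkers. Negative scores can be read as non-binding.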
# Gal(a1-3)Gal(b1-3)GlcNAc = molecular target: Gal(a1-3)Gal(b1-3)GlcNAc
# Method in brief: as §1
# [1] = molecular target: Gal(a1-3)Gal(b1-3)GlcNAc(b1-2)Man
# Method in brief: as §1
# [2] = molecular target: Gal(a1-3)Gal(b1-3)GlcNAc(b1-2)Man(a1-3)[Gal(a1-3)Gal(b1-3)GlcNAc(b1-2)Man(a1-6)]Man(b1-4)GlcNAc(b1-4)GlcNAc
# Method in brief: as §1
# [3] = molecular target: Gal(a1-3)Gal(b1-3)GlcNAc(b1-3)GalNAc
# Method in brief: as §1
# [4] = molecular target: Gal(a1-3)Gal(b1-3)GlcNAc(b1-6)GalNAc
# Method in brief: as §1
# Gal(a1-3)Gal(b1-4)Glc = molecular target: Gal(a1-3)Gal(b1-4)Glc
# Method in brief: as §1
# Gal(a1-3)Gal(b1-4)GlcNAc = molecular target: Gal(a1-3)Gal(b1-4)GlcNAc
# Method in brief: as §1
# [5] = molecular target: Gal(a1-3)Gal(b1-4)GlcNAc(b1-2)Man(a1-3)[Gal(a1-3)Gal(b1-4)GlcNAc(b1-2)Man(a1-6)]Man(b1-4)GlcNAc(b1-4)GlcNAc
# Method in brief: as §1
# [6] = molecular target: Gal(a1-3)Gal(b1-4)[Fuc(a1-3)]GlcNAc
# Method in brief: as §1
# [7] = molecular target: Gal(a1-3)Gal(b1-4)[Fuc(a1-3)]GlcNAc(b1-2)Man(a1-3)[Gal(a1-3)Gal(b1-4)[Fuc(a1-3)]GlcNAc(b1-2)Man(a1-6)]Man(b1-4)GlcNAc(b1-4)GlcNAc
# Method in brief: as §1
# Gal(a1-3)GalNAc = molecular target: Gal(a1-3)GalNAc
# Method in brief: as §1
# [8] = molecular target: Gal(a1-3)[Gal(a1-4)]Gal(b1-4)GlcNAc
# Method in brief: as §1
# [9] = molecular target: Gal(a1-4)Gal(b1-3)GlcNAc(b1-2)Man(a1-3)[Gal(a1-4)Gal(b1-3)GlcNAc(b1-2)Man(a1-6)]Man(b1-4)GlcNAc(b1-4)GlcNAc
# Method in brief: as §1
# Gal(a1-4)Gal(b1-4)Glc = molecular target: Gal(a1-4)Gal(b1-4)Glc
# Method in brief: as §1
# Gal(a1-4)Gal(b1-4)GlcNAc = molecular target: Gal(a1-4)Gal(b1-4)GlcNAc
# Method in brief: as §1
# [10] = molecular target: Gal(a1-4)Gal(b1-4)GlcNAc(b1-2)Man(a1-3)[Gal(a1-4)Gal(b1-4)GlcNAc(b1-2)Man(a1-6)]Man(b1-4)GlcNAc(b1-4)GlcNAc
# Method in brief: as §1
# [11] = molecular target: Gal(a1-4)Gal(b1-4)GlcNAc(b1-3)Gal(b1-4)Glc
# Method in brief: as §1
# Gal(a1-4)GlcNAc = molecular target: Gal(a1-4)GlcNAc
# Method in brief: as §1
# Gal(a1-6)Glc = molecular target: Gal(a1-6)Glc
# Method in brief: as §1
# Gal(b1-2)Gal = molecular target: Gal(b1-2)Gal
# Method in brief: as §1
# Gal(b1-3)Gal(b1-4)GlcNAc = molecular target: Gal(b1-3)Gal(b1-4)GlcNAc
# Method in brief: as §1
# [12] = molecular target: Gal(b1-3)GalNAc(a1-3)[Fuc(a1-2)]Gal(b1-4)Glc
# Method in brief: as §1
# Gal(b1-3)GalNAc(b1-3)Gal = molecular target: Gal(b1-3)GalNAc(b1-3)Gal
# Method in brief: as §1
# [13] = molecular target: Gal(b1-3)GalNAc(b1-3)Gal(a1-4)Gal(b1-4)Glc
# Method in brief: as §1
# [14] = molecular target: Gal(b1-3)GalNAc(b1-4)Gal(b1-4)Glc
# Method in brief: as §1
# [15] = molecular target: Gal(b1-3)GalNAc(b1-4)[Neu5Ac(a2-3)]Gal(b1-4)Glc
# Method in brief: as §1
# Gal(b1-3)GlcNAc = molecular target: Gal(b1-3)GlcNAc
# Method in brief: as §1
# [16] = molecular target: Gal(b1-3)GlcNAc(a1-3)Gal(b1-4)GlcNAc
# Method in brief: as §1
# Gal(b1-3)GlcNAc(b1-2)Man = molecular target: Gal(b1-3)GlcNAc(b1-2)Man
# Method in brief: as §1
# [17] = molecular target: Gal(b1-3)GlcNAc(b1-2)Man(a1-3)[Gal(b1-3)GlcNAc(b1-2)Man(a1-6)]Man(b1-4)GlcNAc(b1-4)GlcNAc
# Method in brief: as §1
# [18] = molecular target: Gal(b1-3)GlcNAc(b1-2)Man(a1-3)[Gal(b1-3)GlcNAc(b1-2)Man(a1-6)]Man(b1-4)GlcNAc(b1-4)[Fuc(a1-6)]GlcNAc
# Method in brief: as §1
# [19] = molecular target: Gal(b1-3)GlcNAc(b1-2)Man(a1-3)[GlcNAc(b1-4)][Gal(b1-3)GlcNAc(b1-2)Man(a1-6)]Man(b1-4)GlcNAc(b1-4)GlcNAc
# Method in brief: as §1
# [20] = molecular target: Gal(b1-3)GlcNAc(b1-2)[Gal(b1-3)GlcNAc(b1-6)]Man(a1-6)[Gal(b1-3)GlcNAc(b1-2)Man(a1-3)]Man(b1-4)GlcNAc(b1-4)GlcNAc
# Method in brief: as §1
# [21] = molecular target: Gal(b1-3)GlcNAc(b1-3)Gal(b1-4)Glc
# Method in brief: as §1
# [22] = molecular target: Gal(b1-3)GlcNAc(b1-3)Gal(b1-4)GlcNAc
# Method in brief: as §1
# [23] = molecular target: Gal(b1-3)GlcNAc(b1-3)Gal(b1-4)GlcNAc(b1-2)Man(a1-3)[Gal(b1-3)GlcNAc(b1-3)Gal(b1-4)GlcNAc(b1-2)Man(a1-6)]Man(b1-4)GlcNAc(b1-4)GlcNAc
# Method in brief: as §1
binder,measurement,setting,value
B1,glycan array binding signal (z-score),Gal(a1-3)Gal,-0.29
same,glycan array binding signal (z-score),Gal(a1-3)Gal(b1-3)GlcNAc,-0.132
same,glycan array binding signal (z-score),[1],-0.164
same,glycan array binding signal (z-score),[2],1.43
same,glycan array binding signal (z-score),[3],-0.037
same,glycan array binding signal (z-score),[4],-0.232
same,glycan array binding signal (z-score),Gal(a1-3)Gal(b1-4)Glc,-0.208
same,glycan array binding signal (z-score),Gal(a1-3)Gal(b1-4)GlcNAc,0.114
same,glycan array binding signal (z-score),[5],1.15
same,glycan array binding signal (z-score),[6],0.241
same,glycan array binding signal (z-score),[7],-0.223
same,glycan array binding signal (z-score),Gal(a1-3)GalNAc,-0.249
same,glycan array binding signal (z-score),[8],1.09
same,glycan array binding signal (z-score),[9],0.952
same,glycan array binding signal (z-score),Gal(a1-4)Gal(b1-4)Glc,0.8
same,glycan array binding signal (z-score),Gal(a1-4)Gal(b1-4)GlcNAc,0.233
same,glycan array binding signal (z-score),[10],-0.229
same,glycan array binding signal (z-score),[11],-0.314
same,glycan array binding signal (z-score),Gal(a1-4)GlcNAc,-0.294
same,glycan array binding signal (z-score),Gal(a1-6)Glc,-0.062
same,glycan array binding signal (z-score),Gal(b1-2)Gal,-0.184
same,glycan array binding signal (z-score),Gal(b1-3)Gal(b1-4)GlcNAc,0.516
same,glycan array binding signal (z-score),[12],-0.225
same,glycan array binding signal (z-score),Gal(b1-3)GalNAc(b1-3)Gal,-0.259
same,glycan array binding signal (z-score),[13],-0.378
same,glycan array binding signal (z-score),[14],-0.231
same,glycan array binding signal (z-score),[15],-0.32
same,glycan array binding signal (z-score),Gal(b1-3)GlcNAc,0.032
same,glycan array binding signal (z-score),[16],-0.22
same,glycan array binding signal (z-score),Gal(b1-3)GlcNAc(b1-2)Man,-0.258
same,glycan array binding signal (z-score),[17],-0.132
same,glycan array binding signal (z-score),[18],-0.288
same,glycan array binding signal (z-score),[19],-0.101
same,glycan array binding signal (z-score),[20],-0.306
same,glycan array binding signal (z-score),[21],-0.32
same,glycan array binding signal (z-score),[22],0.028
same,glycan array binding signal (z-score),[23],-0.024

# As a short view, some entries already given:
binder,measurement,setting,value
B1,glycan array binding signal (z-score),[2],1.43
same,glycan array binding signal (z-score),[3],-0.037
